Drawing on PMC7862700, this text covers binding signal for 40 sequences.

Protein sequences, listed by entry. Tags and fused reporters are not part of them. Lines headed by an entry give the natural chain unless they say otherwise; changes in a name come on top.
UniProt Q99607: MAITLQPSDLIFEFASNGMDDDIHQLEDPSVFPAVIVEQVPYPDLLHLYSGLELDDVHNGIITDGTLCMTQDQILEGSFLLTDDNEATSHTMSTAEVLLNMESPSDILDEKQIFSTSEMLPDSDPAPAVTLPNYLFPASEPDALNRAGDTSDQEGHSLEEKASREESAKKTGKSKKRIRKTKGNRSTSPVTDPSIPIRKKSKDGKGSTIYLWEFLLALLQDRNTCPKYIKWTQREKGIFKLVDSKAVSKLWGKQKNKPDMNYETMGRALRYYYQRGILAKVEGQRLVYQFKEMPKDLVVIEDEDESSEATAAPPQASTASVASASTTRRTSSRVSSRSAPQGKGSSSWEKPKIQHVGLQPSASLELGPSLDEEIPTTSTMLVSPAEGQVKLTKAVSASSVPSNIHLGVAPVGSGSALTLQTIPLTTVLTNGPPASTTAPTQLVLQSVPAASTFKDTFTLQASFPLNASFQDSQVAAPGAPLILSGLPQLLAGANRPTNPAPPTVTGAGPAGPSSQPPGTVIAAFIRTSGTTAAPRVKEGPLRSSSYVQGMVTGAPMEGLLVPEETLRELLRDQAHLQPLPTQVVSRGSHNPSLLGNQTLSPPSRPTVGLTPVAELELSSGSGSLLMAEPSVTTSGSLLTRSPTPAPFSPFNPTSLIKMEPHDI

This is a selection; strong and weak results do not stand in their true shares. At the low end of the ranking the order means little.

The first assay has as its target ELF4 (UniProt Q99607). Put plainly: DAPPL (digital affinity profiling via proximity ligation, sequencing). To be noted: 10 mM Tris-HCl pH 7.5, 50 mM NaCl, 1 mM DTT, 4% glycerol, room temperature, 30 min; GST-TFs on glutathione beads, 16-mer random dsDNA library, 0.1% …; high values mean tight binding; double strand, one strand shown; scale: fold enrichment (6-mer frequency, TF over GST control).
The sequence ACAAAC registered a binding signal of 1.12. The same measure, in the same setting: in the case of TCAACG it was 1.11; in that of CTGACG, 1.06.

AGGATG registered a binding signal of 0.97.

GTCCGC came in with a binding signal of 0.993.

Consider CCATCT, for which the binding signal came to 1.25. The same measure, in the same setting: in the case of GAAACG it was 1.14. Same read-out and setting: in the case of ACCCGG it was 1.7; in that of TCTATT, 1.27; in that of ACTAAT, 1.36. Same read-out and setting: as for TTGCTT, the figure is 1.24. TATATT: the binding signal stood at 1.32. In the case of ATATAT, the binding signal worked out at 1.38.

With CGGTTT, the binding signal was determined as 1.21. Still for that read-out and setting: in the case of GATGCA it was 1.23; in that of AACTCC, 1.3; in that of AGCATC, 1.02.

CATTAC had a binding signal of 1.1. The same measure, in the same setting: in the case of CCTCGC it was 1.6. Sequence ATCACA gave a binding signal of 1.1. Consider CCCAAC, for which the binding signal was 1.22. Same read-out and setting: as for TACAAT, the figure is 1.26. On to CTACGT, for which the binding signal was determined as 1.24. Consider CCGCCG, for which the binding signal was 1.29.

GTATGG displayed a binding signal of 1.02. The sequence CCCGGC displayed a binding signal of 1.19.

Sequence CCCTAT came in with a binding signal of 1.37. As to CATCAC, the binding signal turned out to be 1.12.

For the sequence ACTACA, the binding signal was determined as 1.16.

TTATGC came in with a binding signal of 1.31.

Take CTGTTG: the binding signal was 1.17.

TCACTA displayed a binding signal of 1.12. In turn, ACCATC had a binding signal of 1.12. Same read-out and setting: as for ACCCAC, the figure is 1.23; as for GAAAAT, 1.14. Still for that read-out and setting: as for TGGCCC, the figure is 1.14. Still for that read-out and setting: in the case of TTGATC it was 1.14; in that of TATTTT, 1.4; in that of ATGTTA, 1.33.

AACGGC displayed a binding signal of 1.24.

In a further assay the target is T1, ETV2 (UniProt O00321).
T1 sequence: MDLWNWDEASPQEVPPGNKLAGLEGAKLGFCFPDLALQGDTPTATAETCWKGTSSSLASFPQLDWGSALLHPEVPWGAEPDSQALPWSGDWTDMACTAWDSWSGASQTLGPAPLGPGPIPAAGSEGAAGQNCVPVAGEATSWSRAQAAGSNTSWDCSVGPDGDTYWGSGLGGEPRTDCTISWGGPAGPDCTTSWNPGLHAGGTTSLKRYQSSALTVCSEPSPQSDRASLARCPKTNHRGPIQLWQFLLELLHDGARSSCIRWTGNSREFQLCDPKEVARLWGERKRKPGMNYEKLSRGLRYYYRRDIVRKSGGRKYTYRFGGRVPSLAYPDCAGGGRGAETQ
Described as above. To be noted: 10 mM Tris-HCl pH 7.5, 50 mM NaCl, 1 mM DTT, 4% glycerol, room temperature, 30 min; GST-TFs on glutathione beads, 16-mer random dsDNA library, 0.1% …; high values mean tight binding; double strand, one strand shown; scale: fold enrichment (6-mer frequency, TF over GST control).
TCAACG: the binding signal is 1.18. Same read-out and setting: as for AGGATG, the figure is 0.897; as for GTCCGC, 0.919. On the same count and under the same terms, as for AGCATC, the figure is 0.944; as for CTACGT, 1.03. On the same count and under the same terms, in the case of ACTACA it was 1.11; in that of TCACTA, 1.18.
